Here are results for 3 sequences from article PMC5799372, “A NIN-LIKE PROTEIN mediates nitrate-induced control of root nodule symbiosis in Lotus japonicus”.

For one series, the target named is T1, NRSYM1(531-976)-myc (UniProt A0A2Z5V8A6).
T1 sequence (looked up, limits assumed): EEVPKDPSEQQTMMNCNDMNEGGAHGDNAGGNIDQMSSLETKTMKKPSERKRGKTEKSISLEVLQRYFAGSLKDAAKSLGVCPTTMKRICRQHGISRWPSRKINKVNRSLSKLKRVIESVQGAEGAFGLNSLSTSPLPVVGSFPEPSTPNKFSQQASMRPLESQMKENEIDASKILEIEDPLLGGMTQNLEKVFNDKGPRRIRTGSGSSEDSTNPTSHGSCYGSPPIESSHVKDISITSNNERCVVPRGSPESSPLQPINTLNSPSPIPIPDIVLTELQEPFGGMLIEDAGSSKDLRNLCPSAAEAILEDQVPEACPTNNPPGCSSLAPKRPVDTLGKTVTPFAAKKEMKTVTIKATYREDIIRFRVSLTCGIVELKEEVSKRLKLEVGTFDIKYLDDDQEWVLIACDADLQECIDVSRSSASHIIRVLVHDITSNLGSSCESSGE
Briefly: competition with a labelled probe. Conditions: unlabeled competitor 20x/100x vs CLE-RS2-1 probe, 20 mM HEPES-KOH pH 7.9, 50 mM KCl, 1 mM DTT, 4% glycerol, 0.1% Triton X-100, 10 ul, 30 min room temperature, 15% PAGE, protein translated in vitro, label: biotin (probe), unlabeled as competitor.

Series [1] deals with T2, NIN(520-878)-myc (Lotus japonicus) (UniProt Q9S7B1).
T2 sequence (looked up): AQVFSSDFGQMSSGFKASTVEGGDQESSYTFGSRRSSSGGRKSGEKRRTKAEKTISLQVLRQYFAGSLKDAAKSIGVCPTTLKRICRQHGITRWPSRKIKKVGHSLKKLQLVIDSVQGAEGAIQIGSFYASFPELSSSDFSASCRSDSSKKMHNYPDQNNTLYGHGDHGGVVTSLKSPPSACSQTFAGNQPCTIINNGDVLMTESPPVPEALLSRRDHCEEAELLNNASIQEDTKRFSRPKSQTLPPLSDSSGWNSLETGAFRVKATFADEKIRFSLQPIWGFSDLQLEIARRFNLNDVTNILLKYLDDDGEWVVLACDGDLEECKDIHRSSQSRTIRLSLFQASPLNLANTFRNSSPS
Put plainly: EMSA. Conditions: shift only at greatest protein amount, lower affinity than NRSYM1 at equal amounts; 20 mM HEPES-KOH pH 7.9, 50 mM KCl, 1 mM DTT, 4% glycerol, 0.1% Triton X-100, 10 ul, 30 min room temperature; 15% PAGE; protein translated in vitro; residues 520-878; protein details: myc; label: biotin (probe), unlabeled as competitor. (Mobility shift assays separate free from complexed probe on a gel.)

Weaker means in comparison with the reference protein, sequence or condition of that experiment. Where a protein sequence is shown, tags need not be part of it. For part of these data: The exact form of at least one protein or probe is not confirmed.

Regarding “GGTGATATATTCATGATCTTTAATTCACTTGAAGAGTTAGTGATTGAT / GGTGATCAATCACTAACTCTTCAAGTGAATTAAAGATCATGAATATAT [CLE-RS2-4]”, the binding result with NRSYM1(531-976)-myc (hardly inhibited) is “binds more weakly”.

As to “GGTGGTATCAAACTGACCCCTAGTTTCAGTCCAAAGCCACCTTGATTG / GGTGCAATCAAGGTGGCTTTGGACTGAAACTAGGGGTCAGTTTGATAC [CLE-RS2-3]”, the binding result with NRSYM1(531-976)-myc (weaker than self) is “binds more weakly”. With “GGTGTGTGAGTTCTGACCCTTAAGCCTTGGAAAGGACAGTCATGCAA / GGTGTTGCATGACTGTCCTTTCCAAGGCTTAAGGGTCAGAACTCACA [CLE-RS2-1]”, the binding result in series [1] is listed as “binds more weakly”.
